# Reference: patent US10898561B2, “Peptides and combination of peptides for use in immunotherapy against pancreatic cancer and other cancers” (IMMATICS BIOTECHNOLOGIES GMBH, priority 2015, dated 2021)
# Expression grades refer to the transcript from which the peptide derives; gene names, where given, were looked up from the sequence.
# Test system: source genes of the peptides in pancreatic cancer vs normal tissues
# Assay: Expression profiling of source genes by Affymetrix microarrays
# Set-up: species or system human; key: very highly overexpressed in tumors compared to a panel of normal tissues (+++); highly overexpressed in tumors compared to a panel of normal tissues (++); overexpressed in tumors compared to a panel of normal tissues (+)
# Details: expression score of source gene, tumors compared to a panel of normal tissues
row,Substance,Gene Expression
1,16: peptide found in EEF1A1 (gene looked up) (APVNVTTEVKSV; listed as Homo sapiens) [compound 16],+
2,51: peptide found in HSPD1 (gene looked up) (ALMLQGVDL; listed as Homo sapiens) [compound 51],++
3,58: peptide found in RGS4 (gene looked up) (GLAAFKAFL; listed as Homo sapiens) [compound 58],+
4,25: peptide found in MYH9 (gene looked up) (SLKEEVGEEAI; listed as Homo sapiens) [compound 25],++
5,6: peptide found in CLTA (gene looked up) (VLISLKQAPLV; listed as Homo sapiens) [compound 6],+
6,46: peptide found in EEF1A1 (gene looked up) (TFAPVNVTTEVKSV; listed as Homo sapiens) [compound 46],++
7,48: peptide found in FLNA (gene looked up) (ALTQTGGPHV; listed as Homo sapiens) [compound 48],+
8,61: peptide found in TUBA1B (gene looked up) (ALEKDYEEVGV; listed as Homo sapiens) [compound 61],+++
9,52: peptide found in HYOU1 (gene looked up) (RMVEEIGVEL; listed as Homo sapiens) [compound 52],+
10,62: peptide found in TUBA1B (gene looked up) (ALEKDYEEV; listed as Homo sapiens) [compound 62],+++
11,30: peptide found in SLC16A3 (gene looked up) (VVDEGPTGV; listed as Homo sapiens) [compound 30],++
